This is an account of results in US20070208043A1, “Use of Serum Amyloid A Gene in Diagnosis and Treatment of Glaucoma and Identification of Anti-Glaucoma Agents” (ALCON, INC., priority 2003, published 2007).

The test system of this assay is SAA induced IL-8 secretion in TM cells. As to the kind of experiment: Inhibition of SAA induced IL-8 secretion in TM cells (IL-8 in media by ELISA). It counts as cell-based. The note with it: 4 h, read-out: Calculated IC50, inhibition of SAA stimulated IL-8 secretion. The method, then:
FIG. 11. Effect of MAP p38 kinase inhibitors on induction of IL-8 by SAA treatment (1 μg/ml) in TM cells. […] IL-8 was measured in the media by ELISA.
FIG. 12. […] NTM650-03, p9 or HL-60 cells were treated in serum-free DMEM for 4 hours with 1 μg/ml SAA and the indicated concentrations of SB202580. IL-8 was measured in the media by ELISA.
One pathway for upregulation of IL-8 is through activation of MAP kinases.

Turning to `C[S+]([O-])c1ccc(-c2nc(-c3ccc(F)cc3)c(-c3ccncc3)[nH]2)cc1` (stereo not shown) [SB203580, 4-(4-fluorophenyl)-2-(4-methylsulfinylphenyl)-5-(4-pyridyl)-1H-imidazole], the IC50 was 15 µM.
